Publication PMC10890620
Read-outs that look alike come from different tables or passages of the source. No constants are given. Whether binding was seen depends on the method and setting. Some results given as binding are weak or reduced against the parent protein; the word gives no strength. Tags and fused reporters may be left off the sequences shown.

The chains behind the UniProt entries cited, without tags or fusion partners.
UniProt P19474: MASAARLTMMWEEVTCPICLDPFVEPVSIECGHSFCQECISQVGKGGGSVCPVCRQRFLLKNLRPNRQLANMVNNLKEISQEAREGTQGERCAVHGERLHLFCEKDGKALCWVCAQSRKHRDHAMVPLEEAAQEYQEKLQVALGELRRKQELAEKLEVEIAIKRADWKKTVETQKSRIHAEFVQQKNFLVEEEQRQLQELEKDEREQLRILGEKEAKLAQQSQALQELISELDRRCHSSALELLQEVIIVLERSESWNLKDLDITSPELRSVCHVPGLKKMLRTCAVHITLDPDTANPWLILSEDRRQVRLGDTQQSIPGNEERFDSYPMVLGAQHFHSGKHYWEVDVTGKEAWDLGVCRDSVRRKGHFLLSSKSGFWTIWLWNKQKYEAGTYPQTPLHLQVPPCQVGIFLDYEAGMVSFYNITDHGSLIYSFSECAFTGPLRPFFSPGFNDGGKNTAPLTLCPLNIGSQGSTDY

B1: RNF152 (biotinylated, E3 ligase protein array) (enzyme, UniProt Q8N8N0 1-203)
chain: METLSQDSLLECQICFNYYSPRRRPKLLDCKHTCCSVCLQQMRTSQKDVRCPWCRGVTKLPPGFSVSQLPDDPEVLAVIAIPHTSEHTPVFIKLPSNGCYMLPLPISKERALLPGDMGCRLLPGSQQKSVTVVTIPAEQQPLQGGAPQEAVEEEQDRRGVVKSSTWSGVCTVILVACVLVFLLGIVLHNMSCISKRFTVISCG
modifications: biotinylated
B2: VPS41 (biotinylated, E3 ligase protein array) (protein, UniProt P49754 1-854)
chain: MAEAEEQETGSLEESTDESEEEESEEEPKLKYERLSNGVTEILQKDAASCMTVHDKFLALGTHYGKVYLLDVQGNITQKFDVSPVKINQISLDESGEHMGVCSEDGKVQVFGLYSGEEFHETFDCPIKIIAVHPHFVRSSCKQFVTGGKKLLLFERSWMNRWKSAVLHEGEGNIRSVKWRGHLIAWANNMGVKIFDIISKQRITNVPRDDISLRPDMYPCSLCWKDNVTLIIGWGTSVKVCSVKERHASEMRDLPSRYVEIVSQFETEFYISGLAPLCDQLVVLSYVKEISEKTEREYCARPRLDIIQPLSETCEEISSDALTVRGFQENECRDYHLEYSEGESLFYIVSPRDVVVAKERDQDDHIDWLLEKKKYEEALMAAEISQKNIKRHKILDIGLAYINHLVERGDYDIAARKCQKILGKNAALWEYEVYKFKEIGQLKAISPYLPRGDPVLKPLIYEMILHEFLESDYEGFATLIREWPGDLYNNSVIVQAVRDHLKKDSQNKTLLKTLAELYTYDKNYGNALEIYLTLRHKDVFQLIHKHNLFSSIKDKIVLLMDFDSEKAVDMLLDNEDKISIKKVVEELEDRPELQHVYLHKLFKRDHHKGQRYHEKQISLYAEYDRPNLLPFLRDSTHCPLEKALEICQQRNFVEETVYLLSRMGNSRSALKMIMEELHDVDKAIEFAKEQDDGELWEDLILYSIDKPPFITGLLNNIGTHVDPILLIHRIKEGMEIPNLRDSLVKILQDYNLQILLREGCKKILVADSLSLLKKMHRTQMKGVLVDEENICESCLSPILPSDAAKPFSVVVFHCRHMFHKECLPMPSMNSAAQFCNICSAKNRGPGSAILEMKK
modifications: biotinylated
B3: RNF41 (biotinylated, E3 ligase protein array) (enzyme, UniProt Q9H4P4 1-317)
chain: MGYDVTRFQGDVDEDLICPICSGVLEEPVQAPHCEHAFCNACITQWFSQQQTCPVDRSVVTVAHLRPVPRIMRNMLSKLQIACDNAVFGCSAVVRLDNLMSHLSDCEHNPKRPVTCEQGCGLEMPKDELPNHNCIKHLRSVVQQQQTRIAELEKTSAEHKHQLAEQKRDIQLLKAYMRAIRSVNPNLQNLEETIEYNEILEWVNSLQPARVTRWGGMISTPDAVLQAVIKRSLVESGCPASIVNELIENAHERSWPQGLATLETRQMNRRYYENYVAKRIPGKQAVVVMACENQHMGDDMVQEPGLVMIFAHGVEEI
modifications: biotinylated
B4: ZNF598 (biotinylated, E3 ligase protein array) (enzyme, UniProt Q86UK7 1-904)
chain: MAAAGGAEGRRAALEAAAAAAPERGGGSCVLCCGDLEATALGRCDHPVCYRCSTKMRVLCEQRYCAVCREELRQVVFGKKLPAFATIPIHQLQHEKKYDIYFADGKVYALYRQLLQHECPRCPELPPFSLFGDLEQHMRRQHELFCCRLCLQHLQIFTYERKWYSRKDLARHRMQGDPDDTSHRGHPLCKFCDERYLDNDELLKHLRRDHYFCHFCDSDGAQDYYSDYAYLREHFREKHFLCEEGRCSTEQFTHAFRTEIDLKAHRTACHSRSRAEARQNRHIDLQFSYAPRHSRRNEGVVGGEDYEEVDRYSRQGRVARAGTRGAQQSRRGSWRYKREEEDREVAAAVRASVAAQQQEEARRSEDQEEGGRPKKEEAAARGPEDPRGPRRSPRTQGEGPGPKETSTNGPVSQEAFSVTGPAAPGCVGVPGALPPPSPKLKDEDFPSLSASTSSSCSTAATPGPVGLALPYAIPARGRSAFQEEDFPALVSSVPKPGTAPTSLVSAWNSSSSSKKVAQPPLSAQATGSGQPTRKAGKGSRGGRKGGPPFTQEEEEDGGPALQELLSTRPTGSVSSTLGLASIQPSKVGKKKKVGSEKPGTTLPQPPPATCPPGALQAPEAPASRAEGPVAVVVNGHTEGPAPARSAPKEPPGLPRPLGSFPCPTPQEDFPALGGPCPPRMPPPPGFSAVVLLKGTPPPPPPGLVPPISKPPPGFSGLLPSPHPACVPSPATTTTTKAPRLLPAPRAYLVPENFRERNLQLIQSIRDFLQSDEARFSEFKSHSGEFRQGLISAAQYYKSCRDLLGENFQKVFNELLVLLPDTAKQQELLSAHTDFCNREKPLSTKSKKNKKSAWQATTQQAGLDCRVCPTCQQVLAHGDASSHQALHAARDDDFPSLQAIARIIT
modifications: biotinylated

What was measured:
[1] = target: T1, V5 epitope-tagged tyrosinase (UniProt P11344); assay: AlphaScreen or HTRF; screen of 224 biotinylated E3 ligases against V5-tagged bait; 1 uL of each cell-free product in 15 uL of 100 mM Tris-HCl pH 8.0, 0.01% Tween 20, 100 mM NaCl, 1 mg/mL BSA; 1 h at 26 °C; anti-V5 antibody, streptavidin donor and protein A acceptor beads; signal relative to V5-DHFR; run without (DMSO) and with inulavosin
T1 sequence: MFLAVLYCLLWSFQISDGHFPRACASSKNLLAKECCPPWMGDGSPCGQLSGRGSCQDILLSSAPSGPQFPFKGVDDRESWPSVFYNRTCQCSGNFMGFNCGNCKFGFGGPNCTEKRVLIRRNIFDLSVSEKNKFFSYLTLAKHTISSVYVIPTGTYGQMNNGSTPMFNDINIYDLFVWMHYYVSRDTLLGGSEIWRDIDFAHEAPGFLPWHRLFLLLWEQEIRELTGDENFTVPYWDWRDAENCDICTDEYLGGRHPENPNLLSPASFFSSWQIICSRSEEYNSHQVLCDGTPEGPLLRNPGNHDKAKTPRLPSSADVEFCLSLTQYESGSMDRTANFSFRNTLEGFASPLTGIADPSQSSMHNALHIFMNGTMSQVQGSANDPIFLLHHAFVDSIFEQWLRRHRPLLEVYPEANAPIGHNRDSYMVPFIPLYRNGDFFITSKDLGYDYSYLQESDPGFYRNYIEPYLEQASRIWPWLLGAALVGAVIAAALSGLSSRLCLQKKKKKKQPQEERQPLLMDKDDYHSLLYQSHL

[2] = target: T1, V5 epitope-tagged tyrosinase; assay: as above; remark: listed apart in the source

| Molecule | binding [1] | binding [2] |
| --- | --- | --- |
| TRIM21 (biotinylated, E3 ligase protein array) (from UniProt P19474 1-475) (enzyme) | binds | – |
| B1 | – | binds |
| B2 | – | binds |
| B3 | – | binds |
| B4 | – | binds |
